This passage reports z-score results from PubChem BioAssay AID1347423 (Functional Genomics Laboratory (NCATS/FGL), 2020).

Screen size: about 52,000 sequences; about 210 (0.4%) were called active.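 How the source made its calls: active means gene whose silencing raises cell survival under the drug, median off-target-corrected z-score across its silencing RNAs 2 or more; inactive means the rest.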 This is one part of the list.

A short description of this test: Resistance to Poly (ADP-Ribose) Polymerase inhibitor: Gene Identification via Genome-wide siRNA Screen. The following applies: mouse BRCA2 R2336H ES cells, olaparib, CellTiter-Glo viability; hits give high values. In outline:
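Mouse BRCA2 R2336H ES cells were reverse-transfected with siRNA (20 nM final), treated at 48 h with 500 nM olaparib, and read by CellTiter-Glo after 72 h. Scores: MAD-based z per siRNA, median per gene, seed off-target correction.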
On the technique in general: In ATP-based viability assays light output follows the ATP content of the culture.
Turning to GGAAGGAAAAAGGCUUUUGTT against Olfr135, the z-score was inactive: -1.2.

Consider CAGGCAUCGAAACAUUCAUTT against Olfr672, for which the z-score was inactive: 1.56. Under GGCUCAGAUUUUGUGAUUCTT against Olfr894 stands inactive: 0.308. Under CGUGGAUGUGUCAUCUAUUTT against Mapk10 stands inactive: -0.741; under GGAAGCUUAUAAAAAUGUGTT against Htatip2, inactive: 0.352. The result for GGGAACAAAGCUGACCUUGTT against Rab5b reads inactive: -2.54; that for GGAGCGAGUAGACAUUCUGTT against Rdh13, inactive: -0.119. As to GCUACGAGAUUCUUGUUGCTT against Taar3, the z-score was inactive: 0.374. The result for “GGAACCUAUUGAAUCUGGGTT against D830019K17Rik” reads inactive: 0.578.

In the case of “GGCAUUGAGAAGUUUGAAGTT against 4831428F09”, the z-score was inactive: 0.401. The result for GAAAAACUGCUGUUUUGGATT against Ly6g6d reads inactive: 0.131; that for CCGGCAACAUGCGUGAAUUTT against Trpv4, inactive: -0.769; that for “CGCGAUUCAGCUCAUUCUCTT against 3200001I04Rik”, inactive: -0.0352. Consider GGUUUGCAUAUCUCACCCUTT against Sirt6, for which the z-score is inactive: 0.693. In the case of GGGUUUGAGUGCUGUGAAGTT against Ap4s1, the z-score is inactive: -3.13.

Consider GCCGUCUUCCGAAGAAUACTT against Mettl1, for which the z-score is inactive: -1.28. As for GGUAAUGCUUGAAGAUAAUTT against Ivns1abp, the z-score is inactive: -0.157. The result for “GGCCAGGAGAAGAAGAUACTT against E130014J05Rik” reads active: 4.51; that for GGUUCUCUUGUAAAGAUGUTT against Slco1a1, inactive: -0.229. As to “GGAGUGUUUCCAGAGAGCATT against 4632415K11Rik”, the z-score is inactive: 0.143. As for GCACAUUUUGCGAGUACUCTT against Rps18, the z-score is inactive: -3.53. Take GGAAUUGAAGUCAGAGUUATT against Myoc: the z-score was inactive: 2.03. Take “GGAAACAUGACAGUGGUGCTT against 2310003F16Rik”: the z-score was inactive: 0.756. Under “CCUGAGAGUAACUCUGAGGTT against 5033413H12Rik” stands inactive: 1.34; under CGACAUGUAGCUCUGCAUCTT against Tmem25, inactive: 0.651; under “GGUCACUAGUUUAUUUUGATT against 2610208M17Rik”, inactive: -0.467. The result for GCACUUUUGUUCACUUAAATT against Fmo1 reads inactive: -1.09; that for GGAGCUGAACAAGAAAUUGTT against Polr3h, inactive: 1.14. The result for GGAAUCAGUUUCCCUGUAUTT against Jam4 reads inactive: -0.0407; that for GGAGAGUGCUGUGAAGCCATT against Vegfb, inactive: -0.0773. As to GGAGAAGAAAAACCACUACTT against Cacng8, the z-score is inactive: 0.94.

For GGAUUCUGAGAAAUCAAGATT against Serpinb12, the z-score is inactive: 0.95. Under GGCUGAUCCUGUAUUCUUATT against Sertad3 stands inactive: 0.48. On to GGAAUUAAAGAAAUAUGGCTT against Osp94, for which the z-score is inactive: 0.462. The result for “GGGUGUAACUGUGAGAUAATT against 2410195B05Rik” reads inactive: -0.00189; that for “GCAAUACGCAAACAUUCACTT against 2810021B07Rik”, inactive: -0.328; that for “GGGAUCGUAGAAGAUUAUATT against 2610029G23Rik”, inactive: 0.109.

As for CGAGAAACCACAAUUCUCUTT against Arl11, the z-score was inactive: -0.44. Take GGAAUUCUGACGUGAAGAATT against Olfr13: the z-score is inactive: -2.85. The result for CGCUCAGGUCACCAAAAAGTT against Acaca reads inactive: -1.31. Consider GGAAGAAAUGUACAAACUGTT against Spg21, for which the z-score was inactive: 0.858. The result for “GGAGAUUGAGGAAUCAUCATT against 1700108E19Rik” reads inactive: 0.0305; that for “GCAAGUGAUGAAUGCUUACTT against 3100002P13Rik”, inactive: 0.534. Take GGUGACUCUGAUCAAUUUCTT against Fkbpl: the z-score is inactive: 0.347. The result for CUCAACAUUCUCUAAACAUTT against BC038328 reads inactive: 0.975; that for GGUAGUGAUCCUCAAAAAATT against Myc, inactive: 0.349. For the sequence GGGCAGAAAACAACUGGAATT against Pappa, the z-score is inactive: -0.971. Regarding “GCAAUCUUAGGUUCAUGGUTT against C330014B19Rik”, the z-score was inactive: 0.81. Under “GCUCCCAAGUUUACCCAGCTT against 1110037P11Rik” stands inactive: 0.199; under GGCACCUGGAGUUUUAGAGTT against Ltb4r1, inactive: -0.35. Under GGCCUAUCAAAAUUCAGUUTT against Rbm7 stands inactive: 0.196. On to GCCAGUGUUCGGAGAAGAUTT against Pitx1, for which the z-score was inactive: 0.201.

As to GGCCUAGUGCCUUUAUUUGTT against Ptgfr, the z-score was inactive: 1.03. “GGGUGGACUAGGAGUGGAUTT against D330022A01Rik”: the z-score was inactive: -1.04. The result for CCUAGGACAUUUAUUAACATT against Casc3 reads inactive: -0.369; that for GGUGGAAGCAAGCUGUUCUTT against Trim39, inactive: 0.0684; that for GGACUUACAAAAAUUCCAGTT against Fcer2a, inactive: 1.1. Under GGACUCAAGAUUUCAGAAUTT against Btbd7 stands inactive: -0.275; under “CCCUCUUUAUCAAAGCCAATT against 2310067E19Rik”, inactive: -0.732. Under “GCCCACAGGAUAAUUGUUATT against 0610010K06Rik” stands inactive: 1.62; under CCAAGUGGGAUUUGCCAACTT against Ifi47, inactive: 0.0942. Turning to CUGCUUUUGAGUCUGGCGATT against Iigp5, the z-score is inactive: 0.314. Under GGAUUGUUUCAGAGAUGGATT against Stx6 stands inactive: -1.02; under GGAAAAAAGGAUUUCAAACTT against Rad9b, inactive: 0.238; under CCCUCUAUGCCAAAAGCUATT against CRG-L1, inactive: 0.387. The result for GGUACCUUCAUCUUGGUGGTT against Olfr699 reads inactive: -0.0692. The result for CCUACGCAAUGAUGACCAGTT against Thrap5 reads inactive: -0.965. As for GGGAUAAUAAAGAAGAAGUTT against Dach2, the z-score was inactive: 0.428. The result for GGUCAAUACAAAGAAACUATT against Rabl2a reads inactive: -0.23. Under GGUUGUCAGUAAGAACCUGTT against BC053071 stands inactive: -0.9. Under CGGAUGAGAGGACAUGUAUTT against Tcd1d16 stands inactive: 0.88.

As for GGGUAUGGUUUCAUCACUUTT against Boll, the z-score is inactive: 0.257. The result for “GGUUUGGCUUAGCUCAUCATT against 9030224M15Rik” reads inactive: -2.81; that for GGAUGCUAGCAAAAGGGAUTT against Bex2, inactive: -0.211.

Consider CGUGACUAUUGGAGAAUUUTT against Gpr156, for which the z-score is inactive: 1.31.

Consider GGAAUAGAUUUUUUGAGUGTT against Twistnb, for which the z-score was inactive: -0.389.

As to CCAUUGCCUACCUUGGAUGTT against Olfr492, the z-score is inactive: -0.793. For the sequence CCACCUAAUUUAUUGCUGUTT against Mafk, the z-score is inactive: 1.45. Under GGCAUUGAUCCUGUCCAUGTT against Ddx11 stands inactive: 1.47; under CCCAAUUAAAUUUGAGGGUTT against Cai, inactive: -0.882; under GCCACAGAAAGUGAUUGAGTT against Rbp7, inactive: 0.534. The result for GGUCUGUAUCCUUAUGGCUTT against Olfr103 reads inactive: 1.39; that for “GGAAGAUGUUGAUGAUAUCTT against 1110031B06Rik”, inactive: 1.01; that for “GGACCAACCUUAUAUGAAATT against 1110064N10Rik”, inactive: -0.362. Under “GGAAGCUUUUUUCUGAGCUTT against 1810037C20Rik” stands inactive: 0.0985. Consider GCUUGGACCAUAAAUACUGTT against Senp5, for which the z-score was inactive: 0.259. Consider GAAAGAAACUGCUGAAUGATT against V1re3, for which the z-score was inactive: -2.09.

Regarding GGAUUGAAAAGAUGAAUCGTT against Ict1, the z-score was inactive: 2.12.

GCUUUAAGUACUUUAACGCTT against Ncr1: the z-score is inactive: 0.629. The result for GCUAAUGUGUUCAUUACAGTT against Nek7 reads inactive: 0.258. Under GGAAUUCAAUCUCCUCUACTT against Popdc2 stands inactive: 2.51.

As for “GGAAAUUUGGGUAGGAGUGTT against 2010107E04Rik”, the z-score was inactive: -3.11. Under GGGAGAAAUACAUACACACTT against Cish stands inactive: -0.231.

With GGAAGAUGGAGGAGAAGAATT against Hrh3, the z-score was inactive: -0.629. The result for “GGUCUUUUAGAGUAGGAUUTT against C130037N17Rik” reads inactive: 0.284; that for GCUAUCCUCAAUUGCACACTT against Mjd, inactive: 0.121. The result for GGGUGCAGGAAUUGGUGUUTT against Cd37 reads inactive: -0.565. The result for GCGAGAUUGGUGCAAAACUTT against Grem1 reads inactive: 1. Take GGGAAAGUAAGGGCUGGUUTT against Olfr317: the z-score is inactive: -0.896. Under GCUUCCUUAUGGUUUGAACTT against Atp9a stands inactive: -0.123; under “CCUUGAGUACUUAUUGCGUTT against 1810008K03Rik”, inactive: -0.0608. In the case of “GGAGGGAAUCAGAGAACAGTT against 3830402I07Rik”, the z-score is inactive: -0.781. The result for “CCCUUGCUUUCAUGAUUUATT against A530023O14Rik” reads inactive: 1.46.
